For this assay, the target named is c-Met/Fc Chimera (R&D Systems, catalog # 358-MT-100) (human) (UniProt P08581). As to the kind of experiment: europium (DELFIA) ligand competition ELISA: biotinylated HGF binding to plate-coated c-Met/Fc Chimera, Fab titrated.

No constants are given. Whether binding was seen depends on the method and setting. Some results given as binding are weak or reduced against the parent protein; the word gives no strength.

B1: c-Met 12123 Fab (Fab, V domains shown)
VH: QVQLQESGPGLVKPSATLSLTCAVSGGSISSNHWWSWVRQSPGKGLEWIGEIYTYGGANYNPSLKSRVDISMDKSKNQFSLHLSSVTAADTAVYYCGRHLTGYDCFDIWGQGTLVTVSS
VL: QAVLTQPSSVSGAPGQRVTISCTGSSSNIGAGYDVHWYQQLPGTAPKLLIYGNSNRPSGVPDRFSGSKSGTSASLAITGLQAEDEADYYCQSYDSSLSGVFGTGTQLTVLS
With B1, the binding result is “binds”.

The values are drawn from patent US20040166544A1.
